According to PMC4923944:
These are yes or no findings as the source states them, for the method shown. In cells and extracts the contact can be indirect. These calls come from enrichment with a bait or labelling near it, and not all partners need be listed. Where a sequence is shown, tags or fusion partners need not be part of it.

Chains of the proteins cited; added tags and fusions are not shown.
UniProt P12004: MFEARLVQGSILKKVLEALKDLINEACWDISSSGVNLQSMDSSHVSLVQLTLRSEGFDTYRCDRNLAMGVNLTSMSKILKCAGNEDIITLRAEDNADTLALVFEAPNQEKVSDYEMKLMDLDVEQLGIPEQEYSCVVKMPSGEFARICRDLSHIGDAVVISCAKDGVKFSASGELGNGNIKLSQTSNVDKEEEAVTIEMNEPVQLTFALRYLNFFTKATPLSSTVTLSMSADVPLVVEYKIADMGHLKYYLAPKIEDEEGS

Molecular target: T1, TRAIP C-terminally tagged with streptavidin binding peptide-S peptide-Flag (SFB) (human) (UniProt Q9BWF2)
T1 sequence: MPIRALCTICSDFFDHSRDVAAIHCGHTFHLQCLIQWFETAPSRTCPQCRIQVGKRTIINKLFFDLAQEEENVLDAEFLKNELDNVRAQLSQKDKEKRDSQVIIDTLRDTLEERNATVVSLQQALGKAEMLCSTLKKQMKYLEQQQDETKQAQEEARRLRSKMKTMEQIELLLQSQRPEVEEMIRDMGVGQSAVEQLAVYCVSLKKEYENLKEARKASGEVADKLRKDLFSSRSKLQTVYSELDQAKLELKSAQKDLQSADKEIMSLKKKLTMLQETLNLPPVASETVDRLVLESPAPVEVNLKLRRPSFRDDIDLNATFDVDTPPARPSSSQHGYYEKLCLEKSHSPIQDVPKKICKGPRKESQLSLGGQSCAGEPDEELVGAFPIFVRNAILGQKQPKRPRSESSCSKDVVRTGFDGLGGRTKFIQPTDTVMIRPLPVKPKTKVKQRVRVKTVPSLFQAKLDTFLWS
Assay: affinity purification with mass spectrometry; tandem affinity purification of TRAIP-SFB from 293T cells treated with 5 mM HU for 4 h; NETN buffer; streptavidin sepharose then S protein agarose; LC/MS/MS

“proliferating cell nuclear antigen (PCNA), endogenous (from UniProt P12004 1-261)” was tested, and the binding was “binds”.
